Consider 73 compounds from the supplement of paper PMC9744312.

Where a name gives a salt, the structure may show the parent alone. This is one part of the list. This is a noisy data set.

For the experiment, the system named is Peyronie's disease tunica albuginea primary fibroblasts. The experiment can be described thus: cell viability (DRAQ5 nuclear stain) relative to TGF-beta1-only control; higher = more viable cells. The following applies: 10 µM; TGF-beta1 10 ng/mL; 72 h.
Take `N=C(N)N` [Guanidine HCl]: the cell viability was determined as 68.1%.
As to `Cc1c(C(N)=O)cc([N+](=O)[O-])cc1[N+](=O)[O-]` [Dinitolmide], the cell viability came to 96.1%.
As to `COc1ccc(C2C(=O)c3ccccc3C2=O)cc1` [Anisindione], the cell viability worked out at 81.2%.
Regarding `Cc1cccc(C)c1NC(=O)C1CCCCN1C` (stereo not drawn) [Mepivacaine], the cell viability amounted to 90.6%.
For `Cc1cccc(C)c1NC(=O)C1CCCCN1C` (stereo not drawn) [Mepivacaine HCl] the value was 96.9%; for `CN(C)c1ccc2nc3ccc(=[N+](C)C)cc-3sc2c1` [Methylene Blue], 142%.
Consider `Cc1ncc([N+](=O)[O-])n1CC(O)CCl` (stereo not drawn) [Ornidazole], for which the cell viability was 85.2%.
Take `N#Cc1ccc2[nH]cc(CCCCN3CCN(c4ccc5oc(C(N)=O)cc5c4)CC3)c2c1` [Vilazodone HCl]: the cell viability was 90.5%.
Next, `CN1C(C(=O)Nc2ccccn2)=C(O)c2sccc2S1(=O)=O` [Tenoxicam]: 92.8%.
Take `OC[C@@H](O)[C@H](O)[C@@H](O)CO` [Xylitol]: the cell viability was 82.9%.
Next, `COc1cc2c(cc1OC)C(=O)C(CC1CCN(Cc3ccccc3)CC1)C2` (stereo not drawn) [Donepezil]: 88.2%; `COc1cc2c(cc1OC)C(=O)C(CC1CCN(Cc3ccccc3)CC1)C2` (stereo not drawn) [Donepezil HCl]: 85.9%.
Next, `CNCC[C@H](Oc1cccc2ccccc12)c1cccs1` [Duloxetine HCl]: 85.3%; `CNCC[C@H](Oc1cccc2ccccc12)c1cccs1` [Duloxetine]: 80.3%.
On to `CC1(COc2ccc3c(c2)ncn3-c2ccc3cccc(N4CCC(N)CC4)c3n2)COC1`, for which the cell viability came out at 55.4%.
`CO[C@@]1(NC(=O)Cc2cccs2)C(=O)N2C(C(=O)O)=C(COC(N)=O)CS[C@@H]21` [Cefoxitin sodium]: the cell viability was 89%.
In the case of `CN(C(=O)c1ccc(F)cc1C(F)(F)F)C1CCN(c2nnc(-c3ccnn3C)c3ccccc23)CC1`, the cell viability is 95%.
Regarding `COc1ccc([C@H]2CNC(=O)C2)cc1OC1CCCC1` [S- (+)-Rolipram], the cell viability turned out to be 107%.
On to `COCC1=C(C(=O)OC(C)OC(=O)OC(C)C)N2C(=O)[C@@H](NC(=O)/C(=N\OC)c3csc(N)n3)[C@H]2SC1` (stereo partly drawn) [Cefpodoxime proxetil], for which the cell viability was 93.9%.
For `CC[C@H]1OC(=O)[C@H](C)[C@@H](O[C@H]2C[C@@](C)(OC)[C@@H](O)[C@H](C)O2)[C@H](C)[C@@H](O[C@@H]2O[C@H](C)C[C@H](N(C)C)[C@H]2O)[C@](C)(OC)C[C@@H](C)C(=O)[C@H](C)[C@@H](O)[C@]1(C)O` [Clarithromycin] the value was 83.7%; for `N[C@@H]1CCCCN(c2c(F)cc3c(=O)c(C(=O)O)cn(C4CC4)c3c2Cl)C1` [Besifloxacin HCl], 71.6%; for `CCCCC1=NC2(CCCC2)C(=O)N1Cc1ccc(-c2ccccc2-c2nnn[nH]2)cc1` [Irbesartan], 91.1%.
For `NC(=O)Cc1cccc(C(=O)c2ccccc2)c1N` [Nepafenac] the value was 94.3%; for `CCCCOC(=O)c1ccc(N)cc1` [Butamben], 92.4%.
Next, `CN(C)C(=O)COC(=O)Cc1ccc(OC(=O)c2ccc(NC(=N)N)cc2)cc1` [Camostat Mesilate]: 96.4%.
Turning to `N=C(N)NC(=O)c1nc(Cl)c(N)nc1N` [Amiloride HCl dihydrate], the cell viability was 91.1%.
As for `N=C(N)NC(=O)c1nc(Cl)c(N)nc1N` [Amiloride HCl], the cell viability stood at 82.1%.
For `Nc1ccccc1NC(=O)c1ccc(CNC(=O)OCc2cccnc2)cc1` [Entinostat (MS-275)], the cell viability is 71.1%.
`COc1cc(C(=O)NS(=O)(=O)c2ccccc2C)ccc1Cc1cn(C)c2ccc(NC(=O)OC3CCCC3)cc12` [Zafirlukast]: the cell viability was 83.9%.
On to `Cc1cc(C2CCCCC2)n(O)c(=O)c1` [Ciclopirox ethanolamine], for which the cell viability stood at 55.5%.
For `Cc1cc(C2CCCCC2)n(O)c(=O)c1` [Ciclopirox] the value was 58.6%; for `CC1=C(C(=O)OC(C)C)C(c2cccc([N+](=O)[O-])c2)C(C(=O)OC2CN(C(c3ccccc3)c3ccccc3)C2)=C(N)N1` (stereo not drawn) [Azelnidipine], 90.3%.
Consider `NCCCC[C@H](NC(=O)[C@@H]1CCCN1C(=O)[C@@H]1CSSC[C@H](NC(=O)CNC(=O)CNC(=O)CN)C(=O)N[C@@H](Cc2ccc(O)cc2)C(=O)N[C@@H](Cc2ccccc2)C(=O)N[C@@H](CCC(N)=O)C(=O)N[C@@H](CC(N)=O)C(=O)N1)C(=O)NCC(N)=O` [Terlipressin Acetate], for which the cell viability came to 83.8%.
Next, `NS(=O)(=O)c1cc(C(=O)O)c(NCc2ccco2)cc1Cl` [Furosemide]: 94.7%.
Next, `O=C(O)c1cc(=O)c2ccccc2o1` [Chromocarb]: 93%.
For `CCOc1cc([C@@H](CS(C)(=O)=O)N2C(=O)c3cccc(NC(C)=O)c3C2=O)ccc1OC` the value was 72.3%.
With `CCOC(=O)[C@H](CCc1ccccc1)N[C@@H](C)C(=O)N1[C@H](C(=O)O)C[C@@H]2CCC[C@@H]21` [Ramipril], the cell viability was found to be 88%.
Consider `NC(=O)c1ncn([C@@H]2O[C@H](CO)[C@@H](O)[C@H]2O)n1` [Ribavirin], for which the cell viability worked out at 89.4%.
Take `CNS(=O)(=O)Cc1ccc2[nH]cc(CCN(C)C)c2c1` [Sumatriptan Succinate]: the cell viability was found to be 95.9%.
For `CN[C@H](CC(C)C)C(=O)N[C@H]1C(=O)N[C@@H](CC(N)=O)C(=O)N[C@H]2C(=O)N[C@H]3C(=O)N[C@H](C(=O)N[C@H](C(=O)O)c4cc(O)cc(O)c4-c4cc3ccc4O)[C@H](O)c3ccc(c(Cl)c3)Oc3cc2cc(c3O[C@@H]2O[C@H](CO)[C@@H](O)[C@H](O)[C@H]2O[C@H]2C[C@](C)(N)[C@H](O)[C@H](C)O2)Oc2ccc(cc2Cl)[C@H]1O` [Vancomycin HCl] the value was 85%.
For `NS(=O)(=O)c1cc2c(cc1Cl)N=CNS2(=O)=O` [Chlorothiazide] the value was 89.9%.
On to `CS(=O)(=O)n1cc2c(n1)CN([C@H]1CO[C@H](c3cc(F)ccc3F)[C@@H](N)C1)C2` [Omarigliptin (MK-3102)], for which the cell viability was 92.3%.
Consider `CCCN(CCc1cccs1)[C@H]1CCc2c(O)cccc2C1` [Rotigotine], for which the cell viability came to 89.9%.
As for `Clc1ccc(COC(Cn2ccnc2)c2ccc(Cl)cc2Cl)c(Cl)c1` (stereo not drawn) [Miconazole], the cell viability was 85.2%.
For `Clc1ccc(COC(Cn2ccnc2)c2ccc(Cl)cc2Cl)c(Cl)c1` (stereo not drawn) [Miconazole Nitrate] the value was 93.7%; for `Cc1cc(=O)n(-c2ccccc2)n1C` [Antipyrine], 93%.
On to `CO[C@H]1O[C@@H]2O[C@@]3(C)CC[C@H]4[C@H](C)CC[C@@H]([C@H]1C)[C@@]24OO3` [Artemether], for which the cell viability amounted to 96.3%.
Take `NC12CC3CC(CC(C3)C1)C2` [Amantadine]: the cell viability amounted to 89.9%.
As to `NC12CC3CC(CC(C3)C1)C2` [Amantadine HCl], the cell viability came to 95.1%.
Next, `NCC(=O)O` [Glycine]: 97.3%; `Cc1ccc(-c2ncc(Cl)cc2-c2ccc(S(C)(=O)=O)cc2)cn1` [Etoricoxib]: 90.5%; `CC1CCc2c(N3CCC(O)CC3)c(F)cc3c(=O)c(C(=O)O)cn1c23` (stereo not drawn) [Nadifloxacin]: 91.4%.
`C=CC(=O)N1CCC(Oc2cc3c(Nc4ccc(Cl)c(Cl)c4F)ncnc3cc2OC)CC1` [Poziotinib (HM781-36B)]: the cell viability came out at 64.1%.
On to `CCC(Cc1c(I)cc(I)c(N)c1I)C(=O)O` (stereo not drawn) [Iopanoic acid], for which the cell viability turned out to be 94.9%.
On to `CCC(NC(C)C)C(O)c1ccc(O)c(O)c1` (stereo not drawn) [Isoetharine Mesylate], for which the cell viability amounted to 62.3%.
With `CN1C2=CC(=O)/C(=N\NC(N)=O)C=C2CC1S(=O)(=O)O` (stereo not drawn) [Carbazochrome sodium sulfonate (AC-17)], the cell viability came to 96.1%.
For `C[C@]12CC[C@@H]3c4ccc(O)cc4CC[C@H]3[C@@H]1CC[C@@H]2OC(=O)CCC1CCCC1` [Estradiol Cypionate] the value was 89.2%; for `C[C@@H]1[C@H](O)[C@@H](C)/C=C/C=C/C=C/C=C/C=C/C=C/C=C/[C@H](O[C@@H]2O[C@H](C)[C@@H](O)[C@H](N)[C@@H]2O)C[C@@H]2O[C@](O)(C[C@@H](O)C[C@@H](O)[C@H](O)CC[C@@H](O)C[C@@H](O)CC(=O)O[C@H]1C)C[C@H](O)[C@H]2C(=O)O` [Amphotericin B], 75.7%.
For the compound `CO[C@@]1(NC(=O)CSCC#N)C(=O)N2C(C(=O)O)=C(CSc3nnnn3C)CS[C@@H]21` [Cefmetazole sodium], the cell viability worked out at 89.5%.
Next, `CCN[C@H]1C[C@H](C)S(=O)(=O)c2sc(S(N)(=O)=O)cc21` [Dorzolamide HCl]: 92.3%.
As for `O=C1Cc2cc(CCN3CCN(c4nsc5ccccc45)CC3)c(Cl)cc2N1` [Ziprasidone HCl], the cell viability stood at 57.8%.
Next, `CC(C)/N=c1\cc2n(-c3ccc(Cl)cc3)c3ccccc3nc-2cc1Nc1ccc(Cl)cc1` [Clofazimine]: 88.5%; `CC(C)(C(=O)c1cccnc1)c1cccnc1` [Metyrapone]: 99.7%; `Nc1ncn([C@H]2C[C@H](O)[C@@H](CO)O2)c(=O)n1` [Decitabine]: 66.1%.
For `CS(=O)(=O)CCNCc1ccc(-c2ccc3ncnc(Nc4ccc(OCc5cccc(F)c5)c(Cl)c4)c3c2)o1` the value was 93.2%.
With `CS(=O)(=O)CCNCc1ccc(-c2ccc3ncnc(Nc4ccc(OCc5cccc(F)c5)c(Cl)c4)c3c2)o1` [Lapatinib], the cell viability was determined as 89.7%.
As to `CS(=O)(=O)CCNCc1ccc(-c2ccc3ncnc(Nc4ccc(OCc5cccc(F)c5)c(Cl)c4)c3c2)o1` [Lapatinib ditosylate monohydrate], the cell viability was determined as 89.6%.
Next, `C=CC(=O)Nc1cccc(Nc2nc(Nc3ccc(N4CCN(C(C)=O)CC4)cc3OC)ncc2C(F)(F)F)c1` [Rociletinib (CO-1686, AVL-301)]: 55.9%.
In the case of `Nc1c(Br)cc(Br)cc1CN[C@H]1CC[C@H](O)CC1` [Ambroxol], the cell viability is 79.9%.
Next, `Nc1c(Br)cc(Br)cc1CN[C@H]1CC[C@H](O)CC1` [Ambroxol HCl]: 94.2%.
For `Oc1ccc(Cl)c2cccnc12` [Cloxiquine] the value was 64.9%; for `Cn1ccnc1S` [Methimazole], 95.6%; for `CC(C)(Sc1cc(C(C)(C)C)c(O)c(C(C)(C)C)c1)Sc1cc(C(C)(C)C)c(O)c(C(C)(C)C)c1` [Probucol], 93.3%.

In general, cell viability refers to a read-out of living cells in per cent, often relative to untreated cells.
